Laboratory results reported in publication PMC6994238.
Results are given in words; binding and its absence hold for the method and conditions named. Some results given as binding are weak or reduced against the parent protein; the word gives no strength.

By UniProt entry, the sequences of proteins in these tests, tags left out.
UniProt P04690: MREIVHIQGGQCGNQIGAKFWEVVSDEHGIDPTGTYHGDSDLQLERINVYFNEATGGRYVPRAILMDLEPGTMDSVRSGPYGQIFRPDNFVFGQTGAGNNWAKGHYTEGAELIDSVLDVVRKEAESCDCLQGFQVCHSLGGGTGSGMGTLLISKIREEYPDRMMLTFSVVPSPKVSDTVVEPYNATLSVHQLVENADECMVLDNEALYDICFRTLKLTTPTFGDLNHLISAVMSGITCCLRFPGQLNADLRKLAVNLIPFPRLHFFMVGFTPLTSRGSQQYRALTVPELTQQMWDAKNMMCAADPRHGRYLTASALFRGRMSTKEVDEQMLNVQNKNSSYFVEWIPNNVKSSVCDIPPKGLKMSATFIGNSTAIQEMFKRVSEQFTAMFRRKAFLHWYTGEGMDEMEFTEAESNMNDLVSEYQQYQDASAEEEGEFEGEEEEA
UniProt B1B601: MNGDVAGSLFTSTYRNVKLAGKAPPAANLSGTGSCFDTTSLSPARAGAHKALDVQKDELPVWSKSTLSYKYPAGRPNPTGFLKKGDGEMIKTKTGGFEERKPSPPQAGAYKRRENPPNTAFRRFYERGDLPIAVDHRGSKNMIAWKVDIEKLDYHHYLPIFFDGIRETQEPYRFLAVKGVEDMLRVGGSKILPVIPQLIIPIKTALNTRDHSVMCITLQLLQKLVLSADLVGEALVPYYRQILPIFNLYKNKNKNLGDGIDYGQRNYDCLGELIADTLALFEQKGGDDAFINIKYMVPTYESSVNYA

Target: β-tubulin, Chlamydomonas reinhardtii (Chlamydomonas reinhardtii) (UniProt P04690)
Assay: cryo-EM structure; taxol-stabilised, 0.6 M NaCl-washed doublet microtubules isolated from Chlamydomonas flagella; 16 nm repeat map, focused refinement of the inner junction to 3.6 Å; atomic model PDB 6VE7

With “PArkin Co-Regulated Gene (PACRG), Chlamydomonas reinhardtii (from UniProt B1B601 1-307)” the binding was “binds”.
